Among the data in paper doi:10.1101/2024.03.04.582938 are binding values, retold here.

Protein sequences, listed by entry. Tags and fused reporters are not part of them. Residues count along the entry.
UniProt P98161, residues 24-4303: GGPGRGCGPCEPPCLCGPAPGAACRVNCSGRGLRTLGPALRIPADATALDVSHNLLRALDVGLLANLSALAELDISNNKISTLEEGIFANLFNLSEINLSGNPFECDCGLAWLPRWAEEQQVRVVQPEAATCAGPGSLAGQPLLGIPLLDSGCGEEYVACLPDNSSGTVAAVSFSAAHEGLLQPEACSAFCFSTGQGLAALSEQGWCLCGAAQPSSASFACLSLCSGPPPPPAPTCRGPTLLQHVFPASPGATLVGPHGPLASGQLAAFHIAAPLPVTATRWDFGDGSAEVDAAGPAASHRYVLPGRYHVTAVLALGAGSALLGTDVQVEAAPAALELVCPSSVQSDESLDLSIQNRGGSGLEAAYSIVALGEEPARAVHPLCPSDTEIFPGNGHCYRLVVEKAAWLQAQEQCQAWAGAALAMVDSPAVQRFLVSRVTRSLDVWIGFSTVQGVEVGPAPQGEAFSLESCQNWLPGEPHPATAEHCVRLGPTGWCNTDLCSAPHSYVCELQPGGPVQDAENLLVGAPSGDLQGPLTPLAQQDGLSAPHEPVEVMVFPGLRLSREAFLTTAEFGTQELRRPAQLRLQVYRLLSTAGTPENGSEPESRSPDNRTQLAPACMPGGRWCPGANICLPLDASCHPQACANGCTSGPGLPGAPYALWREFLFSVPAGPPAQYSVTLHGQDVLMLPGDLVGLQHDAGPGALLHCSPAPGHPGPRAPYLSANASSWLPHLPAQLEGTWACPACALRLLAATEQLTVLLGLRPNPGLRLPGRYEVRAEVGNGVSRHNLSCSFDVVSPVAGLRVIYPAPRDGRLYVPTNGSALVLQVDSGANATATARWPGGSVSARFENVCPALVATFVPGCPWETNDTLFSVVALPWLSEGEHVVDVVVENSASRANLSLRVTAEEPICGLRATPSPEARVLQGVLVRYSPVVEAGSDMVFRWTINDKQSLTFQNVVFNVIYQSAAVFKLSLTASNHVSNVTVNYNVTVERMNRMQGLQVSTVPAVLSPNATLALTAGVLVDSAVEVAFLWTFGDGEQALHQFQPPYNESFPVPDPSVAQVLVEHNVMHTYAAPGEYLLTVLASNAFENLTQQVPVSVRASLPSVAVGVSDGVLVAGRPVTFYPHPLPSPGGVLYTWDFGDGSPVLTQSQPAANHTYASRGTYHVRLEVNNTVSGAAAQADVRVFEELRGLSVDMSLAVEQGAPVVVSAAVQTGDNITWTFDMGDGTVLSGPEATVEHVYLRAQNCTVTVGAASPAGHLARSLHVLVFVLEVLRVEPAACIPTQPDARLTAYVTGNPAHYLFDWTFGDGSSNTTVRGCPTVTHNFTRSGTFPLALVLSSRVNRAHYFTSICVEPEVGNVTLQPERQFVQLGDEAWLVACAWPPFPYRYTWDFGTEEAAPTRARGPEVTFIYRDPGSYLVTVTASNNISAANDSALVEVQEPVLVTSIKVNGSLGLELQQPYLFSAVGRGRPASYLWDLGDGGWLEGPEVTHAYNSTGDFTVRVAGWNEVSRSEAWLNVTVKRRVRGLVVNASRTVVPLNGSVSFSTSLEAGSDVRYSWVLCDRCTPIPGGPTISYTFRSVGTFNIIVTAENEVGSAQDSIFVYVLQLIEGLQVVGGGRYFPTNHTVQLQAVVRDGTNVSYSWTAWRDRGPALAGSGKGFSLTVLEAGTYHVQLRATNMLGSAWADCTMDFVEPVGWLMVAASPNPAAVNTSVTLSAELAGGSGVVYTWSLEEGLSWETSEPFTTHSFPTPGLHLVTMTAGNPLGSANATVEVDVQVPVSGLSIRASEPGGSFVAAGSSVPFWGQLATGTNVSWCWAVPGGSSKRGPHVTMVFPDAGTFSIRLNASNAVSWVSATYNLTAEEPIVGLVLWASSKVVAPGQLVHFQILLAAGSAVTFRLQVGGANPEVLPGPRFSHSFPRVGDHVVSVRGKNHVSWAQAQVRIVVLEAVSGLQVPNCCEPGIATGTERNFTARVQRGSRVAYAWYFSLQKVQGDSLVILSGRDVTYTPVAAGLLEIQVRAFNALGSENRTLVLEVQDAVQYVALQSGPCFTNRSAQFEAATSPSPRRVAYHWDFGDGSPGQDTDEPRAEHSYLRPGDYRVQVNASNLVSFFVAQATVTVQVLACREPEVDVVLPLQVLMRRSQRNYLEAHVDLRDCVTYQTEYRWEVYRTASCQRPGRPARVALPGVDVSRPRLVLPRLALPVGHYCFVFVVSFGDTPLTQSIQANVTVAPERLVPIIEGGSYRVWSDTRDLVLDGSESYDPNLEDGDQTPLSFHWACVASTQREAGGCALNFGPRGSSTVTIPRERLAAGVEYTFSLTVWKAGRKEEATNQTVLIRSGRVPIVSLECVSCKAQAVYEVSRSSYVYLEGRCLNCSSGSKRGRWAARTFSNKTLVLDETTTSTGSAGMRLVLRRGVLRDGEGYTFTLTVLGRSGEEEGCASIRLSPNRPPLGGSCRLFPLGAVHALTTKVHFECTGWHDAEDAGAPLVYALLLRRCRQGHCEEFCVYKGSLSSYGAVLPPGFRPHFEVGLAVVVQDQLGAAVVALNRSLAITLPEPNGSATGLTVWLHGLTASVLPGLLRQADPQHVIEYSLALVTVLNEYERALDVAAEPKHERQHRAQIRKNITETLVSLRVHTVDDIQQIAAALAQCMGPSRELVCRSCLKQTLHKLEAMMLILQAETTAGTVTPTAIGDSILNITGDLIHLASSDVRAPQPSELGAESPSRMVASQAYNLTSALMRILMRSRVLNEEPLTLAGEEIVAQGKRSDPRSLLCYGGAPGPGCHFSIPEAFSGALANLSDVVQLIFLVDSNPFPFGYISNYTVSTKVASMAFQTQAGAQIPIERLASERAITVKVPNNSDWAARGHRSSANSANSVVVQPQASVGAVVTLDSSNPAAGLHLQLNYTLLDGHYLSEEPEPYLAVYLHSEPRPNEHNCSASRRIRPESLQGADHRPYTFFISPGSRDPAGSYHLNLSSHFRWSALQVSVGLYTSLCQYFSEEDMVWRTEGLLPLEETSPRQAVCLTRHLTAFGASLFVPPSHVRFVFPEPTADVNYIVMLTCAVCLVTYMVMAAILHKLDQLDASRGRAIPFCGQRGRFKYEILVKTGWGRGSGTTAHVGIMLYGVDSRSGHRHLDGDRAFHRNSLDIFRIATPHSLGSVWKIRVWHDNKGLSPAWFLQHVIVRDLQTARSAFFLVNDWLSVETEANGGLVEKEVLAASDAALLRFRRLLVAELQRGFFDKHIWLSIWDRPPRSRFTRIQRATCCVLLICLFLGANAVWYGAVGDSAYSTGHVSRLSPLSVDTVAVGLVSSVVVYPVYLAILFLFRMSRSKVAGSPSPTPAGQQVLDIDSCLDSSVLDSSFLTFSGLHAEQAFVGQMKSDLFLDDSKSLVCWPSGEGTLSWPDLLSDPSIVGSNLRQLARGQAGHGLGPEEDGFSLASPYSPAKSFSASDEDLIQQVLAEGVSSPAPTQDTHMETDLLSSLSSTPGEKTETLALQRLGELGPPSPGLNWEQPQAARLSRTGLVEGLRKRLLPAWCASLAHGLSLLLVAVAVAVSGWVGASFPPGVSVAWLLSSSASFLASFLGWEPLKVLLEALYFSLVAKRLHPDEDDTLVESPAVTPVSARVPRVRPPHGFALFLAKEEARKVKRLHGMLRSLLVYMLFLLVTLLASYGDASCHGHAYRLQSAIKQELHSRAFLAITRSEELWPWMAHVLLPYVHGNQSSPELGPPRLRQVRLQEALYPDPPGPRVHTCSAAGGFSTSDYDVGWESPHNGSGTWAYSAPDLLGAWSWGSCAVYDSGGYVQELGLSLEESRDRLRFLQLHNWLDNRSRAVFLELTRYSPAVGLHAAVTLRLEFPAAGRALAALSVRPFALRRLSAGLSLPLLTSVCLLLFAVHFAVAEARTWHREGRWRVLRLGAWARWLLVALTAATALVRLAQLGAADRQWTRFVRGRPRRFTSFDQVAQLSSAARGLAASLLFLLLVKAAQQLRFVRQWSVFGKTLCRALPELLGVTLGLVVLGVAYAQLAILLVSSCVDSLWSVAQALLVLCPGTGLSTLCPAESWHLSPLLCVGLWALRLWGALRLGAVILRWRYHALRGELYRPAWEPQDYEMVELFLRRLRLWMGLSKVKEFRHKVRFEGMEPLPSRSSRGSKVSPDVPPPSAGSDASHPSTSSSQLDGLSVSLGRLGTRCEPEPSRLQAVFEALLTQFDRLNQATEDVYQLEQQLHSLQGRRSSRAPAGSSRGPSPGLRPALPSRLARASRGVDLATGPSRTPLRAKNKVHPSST
UniProt Q9UBS4, residues 23-358: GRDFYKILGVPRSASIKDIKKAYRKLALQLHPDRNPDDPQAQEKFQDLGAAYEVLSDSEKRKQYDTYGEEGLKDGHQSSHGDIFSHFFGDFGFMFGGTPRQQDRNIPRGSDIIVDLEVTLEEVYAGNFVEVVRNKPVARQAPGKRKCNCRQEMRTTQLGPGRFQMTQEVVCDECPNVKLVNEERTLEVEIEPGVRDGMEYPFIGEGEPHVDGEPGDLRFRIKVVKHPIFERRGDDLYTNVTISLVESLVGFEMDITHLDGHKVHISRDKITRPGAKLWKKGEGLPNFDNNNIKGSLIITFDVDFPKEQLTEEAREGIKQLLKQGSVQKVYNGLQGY

In this assay the target is FLAG-tagged polycystin-1 (PC1) (UniProt P98161). Put plainly: affinity purification with mass spectrometry.

These are yes or no findings as the source states them, for the method shown. Binding seen in cells or lysates may run through a third protein. A yes stands for co-enrichment or nearness to the bait. Other partners may have been found.

On to “DNAJB11 (endogenous, HEK 293T) (from UniProt Q9UBS4 23-358)”, for which the binding entry was “binds”.
